In PMC8509813:
No constants are given. Whether binding was seen depends on the method and setting. Some entries that bind do so weakly or less than the wild type.

T1: citrate synthase (UniProt P00889)
T1 sequence: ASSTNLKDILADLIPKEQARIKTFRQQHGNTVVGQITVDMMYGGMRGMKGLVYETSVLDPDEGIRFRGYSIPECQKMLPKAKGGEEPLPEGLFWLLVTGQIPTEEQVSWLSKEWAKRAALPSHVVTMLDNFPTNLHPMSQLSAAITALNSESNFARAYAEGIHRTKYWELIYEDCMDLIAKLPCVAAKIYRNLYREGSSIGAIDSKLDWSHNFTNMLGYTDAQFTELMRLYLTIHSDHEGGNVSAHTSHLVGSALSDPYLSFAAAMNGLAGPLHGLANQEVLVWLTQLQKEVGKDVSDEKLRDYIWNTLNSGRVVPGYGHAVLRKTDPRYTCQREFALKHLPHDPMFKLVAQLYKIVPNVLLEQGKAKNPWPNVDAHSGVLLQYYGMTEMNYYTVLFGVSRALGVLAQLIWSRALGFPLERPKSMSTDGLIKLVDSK


Experiments:
citrate synthase = biological target: T1, citrate synthase; assay: SEC-MALS; mixtures of chaperone and citrate synthase (chaperone-to-substrate ratio 1:2) incubated at 43 °C for 0, 40 and 80 min, then run on a TSK G5000PWXL column with UV, refractive index, MALS and quasi-elastic light scattering detectors; both purified
lysozyme = lysozyme (UniProt P00698); assay: co-sedimentation; lysozyme (5 µM) aggregated with DTT in 0.25 mL PBS at 37 °C for 60 min with 1 or 5 µM chaperone; centrifuged at 6000 rpm for 20 min; pellet and supernatant on SDS-PAGE, band intensities; both purified

Row | binding (citrate synthase) | binding (lysozyme) | Binder
1 | binds weakly | binds | wild-type αB-crystallin (protein, UniProt P02511 1-175) MDIAIHHPWIRRPFFPFHSPSRLFDQFFGEHLLESDLFPTSTSLSPFYLRPPSFLRAPSWFDTGLSEMRLEKDRFSVNLDVKHFSPEELKVKVLGDVIEVHGKHEERQDEHGFISREFHRKYRIPADVDPLTITSSLSSDGVLTVNGPRKQVSGPERTIPITREEKPAVTAAPKK
2 | binds | binds | αB-crystallin with residues 54–61 deleted (protein, UniProt P02511) MDIAIHHPWIRRPFFPFHSPSRLFDQFFGEHLLESDLFPTSTSLSPFYLRPPSDTGLSEMRLEKDRFSVNLDVKHFSPEELKVKVLGDVIEVHGKHEERQDEHGFISREFHRKYRIPADVDPLTITSSLSSDGVLTVNGPRKQVSGPERTIPITREEKPAVTAAPKK
